Columns and labels:
H1299 (lung carcinoma) = assay: MTT cell viability assay, H1299; settings: Homo sapiens, NCI-H1299, 48 h, read-out: cell viability
Procedure: (§1) Cell Culture Conditions. The cell lines were obtained from the American Type Culture Collection (ATCC). PANC-1 and Caco-2 cell lines were maintained in DMEM medium (Gibco); HT-29, HCT-116 and RKO cells were maintained in McCoy's 5A medium (Gibco); and DU-145 and H1299 cells were maintained in RPMI 1640 medium (Gibco), supplemented with 10% fetal bovine serum (FBS; Gibco) and 1% antibiotics (10.00 units/mL penicillin and 10.00 mg/mL streptomycin; Gibco). Cells were preserved in tissue culture flasks at 37° C. and 5% CO2. Culture medium was replaced every three days.
(§2) Cell Viability Assay. The effect of each compound on cell viability was tested using the MTT assay (81). Briefly, 9000 cells/well were grown in 96-well plates for 12 h. Then these cells were incubated with either DMSO (control) or nine different concentration between 0.01-50 μM of the test compounds for 24, 48, and 72 h. Three hours before the termination point, 20 μL of MTT were added to measure cellular viability. The resultant formazan crystals were dissolved in 50 μL of DMSO, and absorbance was measured at 570 nm and 630 nm wavelengths. IC50, GI50, TGI and LC50 values were calculated using OriginPro 8.5.1.
(§3) Evaluation of the antiproliferative activities of the novel molecules. […] These four cell lines were treated with each compound at three concentrations (5, 25 and 50 μM) for 48 h.

[1] = tested on: DU-145 (prostate carcinoma); assay: MTT cell viability assay, DU-145; settings: Homo sapiens, DU-145, 48 h, read-out: cell viability
Procedure: as §1, §2, §3

HT-29 (CRC) = assay: MTT cell viability assay, HT-29; settings: Homo sapiens, HT-29, 48 h, read-out: cell viability
Procedure: as §1, §2, §3

[2] = tested on: PANC-1 (pancreatic carcinoma); assay: MTT cell viability assay, Panc-1; settings: Homo sapiens, PANC-1, 48 h, read-out: cell viability
Procedure: as §1, §2, §3

In the case of `COc1ccc2cc([C@H](C)C(=O)O)ccc2c1` [Nap, Naproxen, reference compound], the viability at 5 µM (H1299 (lung carcinoma)) is reported as 100 ± 4.9%, the viability at 25 µM (H1299 (lung carcinoma)) is reported as 100% and the viability at 50 µM (H1299 (lung carcinoma)) is reported as 100%. For the same compound, the viability at 5 µM [1] was 100 ± 8.4%, the viability at 25 µM [1] was 100% and the viability at 50 µM [1] was 100 ± 9.5%. The viability at 5 µM (HT-29 (CRC)) was 97.2 ± 3.9%, the viability at 25 µM (HT-29 (CRC)) was 99.6 ± 5.5% and the viability at 50 µM (HT-29 (CRC)) was 98.4 ± 3.2%. It also gave a viability at 5 µM [2] of 89.6 ± 1.2%, a viability at 25 µM [2] of 91.1 ± 9.8% and a viability at 50 µM [2] of 95.7 ± 26%.

From US20230219886A1, “NOVEL SELENO-NSAID ANALOGS AND USES THEREOF” (THE PENN STATE RESEARCH FOUNDATION, priority 2020, published 2023)
